According to the supplement of paper PMC10849652:
This is one part of the list.

Amino acid sequences for entries named in this document (tags omitted). A change or cut given only in a name is not applied to a line headed by its entry.
UniProt Q9P2D6: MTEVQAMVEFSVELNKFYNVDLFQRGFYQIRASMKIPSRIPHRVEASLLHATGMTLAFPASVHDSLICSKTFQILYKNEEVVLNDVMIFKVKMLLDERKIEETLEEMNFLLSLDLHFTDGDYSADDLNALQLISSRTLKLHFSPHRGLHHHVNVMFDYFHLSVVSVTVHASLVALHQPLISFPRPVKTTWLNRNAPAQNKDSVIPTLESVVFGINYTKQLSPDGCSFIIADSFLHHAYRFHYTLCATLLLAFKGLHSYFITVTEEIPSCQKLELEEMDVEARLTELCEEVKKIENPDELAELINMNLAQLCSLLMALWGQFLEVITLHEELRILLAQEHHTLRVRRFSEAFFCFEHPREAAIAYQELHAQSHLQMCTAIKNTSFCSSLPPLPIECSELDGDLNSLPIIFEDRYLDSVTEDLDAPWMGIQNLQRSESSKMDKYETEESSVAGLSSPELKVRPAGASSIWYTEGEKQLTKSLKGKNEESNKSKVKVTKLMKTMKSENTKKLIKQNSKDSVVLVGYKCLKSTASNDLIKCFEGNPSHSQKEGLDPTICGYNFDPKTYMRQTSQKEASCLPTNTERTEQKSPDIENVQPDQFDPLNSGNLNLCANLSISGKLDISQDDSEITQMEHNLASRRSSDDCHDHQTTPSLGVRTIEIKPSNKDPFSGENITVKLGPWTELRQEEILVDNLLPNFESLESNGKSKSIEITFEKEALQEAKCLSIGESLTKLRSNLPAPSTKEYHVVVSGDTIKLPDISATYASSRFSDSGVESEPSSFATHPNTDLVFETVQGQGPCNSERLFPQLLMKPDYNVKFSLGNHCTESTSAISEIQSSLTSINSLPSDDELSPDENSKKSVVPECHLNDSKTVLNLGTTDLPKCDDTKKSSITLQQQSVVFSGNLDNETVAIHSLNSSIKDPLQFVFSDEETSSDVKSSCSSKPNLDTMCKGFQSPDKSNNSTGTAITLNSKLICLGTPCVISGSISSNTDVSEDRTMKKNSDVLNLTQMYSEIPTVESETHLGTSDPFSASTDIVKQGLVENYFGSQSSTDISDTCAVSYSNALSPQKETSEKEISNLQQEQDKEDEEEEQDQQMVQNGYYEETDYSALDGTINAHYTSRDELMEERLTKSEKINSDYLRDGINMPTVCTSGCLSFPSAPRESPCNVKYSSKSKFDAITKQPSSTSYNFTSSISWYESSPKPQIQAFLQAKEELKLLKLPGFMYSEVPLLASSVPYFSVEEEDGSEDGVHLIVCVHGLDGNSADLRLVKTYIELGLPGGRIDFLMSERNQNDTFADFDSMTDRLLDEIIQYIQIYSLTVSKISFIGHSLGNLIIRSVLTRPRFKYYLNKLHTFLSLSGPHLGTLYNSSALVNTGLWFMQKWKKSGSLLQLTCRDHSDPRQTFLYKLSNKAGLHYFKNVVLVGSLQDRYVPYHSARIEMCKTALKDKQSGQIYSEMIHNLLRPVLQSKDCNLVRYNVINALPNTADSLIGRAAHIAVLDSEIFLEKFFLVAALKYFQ
UniProt P84090, whole entry, looked up: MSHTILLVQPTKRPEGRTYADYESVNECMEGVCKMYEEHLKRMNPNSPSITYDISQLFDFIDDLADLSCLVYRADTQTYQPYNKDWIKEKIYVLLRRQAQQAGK
UniProt Q9H501: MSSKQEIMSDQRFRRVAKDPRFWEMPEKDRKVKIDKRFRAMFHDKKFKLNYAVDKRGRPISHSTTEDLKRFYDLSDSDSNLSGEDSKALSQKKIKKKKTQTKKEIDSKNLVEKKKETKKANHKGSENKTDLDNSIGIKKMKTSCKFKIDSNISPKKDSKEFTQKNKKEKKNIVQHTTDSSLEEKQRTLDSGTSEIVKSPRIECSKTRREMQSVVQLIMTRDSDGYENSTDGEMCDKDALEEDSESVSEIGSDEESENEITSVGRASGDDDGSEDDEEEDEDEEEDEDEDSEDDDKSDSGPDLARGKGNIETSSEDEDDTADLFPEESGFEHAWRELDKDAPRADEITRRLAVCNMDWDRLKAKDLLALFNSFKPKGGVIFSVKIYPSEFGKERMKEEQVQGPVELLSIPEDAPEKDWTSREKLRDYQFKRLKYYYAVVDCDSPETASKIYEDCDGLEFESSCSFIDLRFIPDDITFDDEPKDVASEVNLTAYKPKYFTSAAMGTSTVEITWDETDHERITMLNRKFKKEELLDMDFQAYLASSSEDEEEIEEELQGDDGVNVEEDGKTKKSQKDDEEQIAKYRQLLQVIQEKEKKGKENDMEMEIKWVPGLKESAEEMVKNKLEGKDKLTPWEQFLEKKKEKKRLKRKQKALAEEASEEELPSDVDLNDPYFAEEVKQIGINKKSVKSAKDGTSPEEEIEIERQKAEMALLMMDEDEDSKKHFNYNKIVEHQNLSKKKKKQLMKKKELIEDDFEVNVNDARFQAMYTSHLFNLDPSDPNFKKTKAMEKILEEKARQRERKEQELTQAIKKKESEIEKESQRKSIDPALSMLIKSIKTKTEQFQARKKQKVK
UniProt Q9UKR5: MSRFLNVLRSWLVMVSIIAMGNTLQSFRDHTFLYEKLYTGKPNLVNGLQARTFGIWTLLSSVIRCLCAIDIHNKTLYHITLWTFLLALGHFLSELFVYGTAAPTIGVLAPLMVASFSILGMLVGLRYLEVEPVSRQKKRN
UniProt Q99504: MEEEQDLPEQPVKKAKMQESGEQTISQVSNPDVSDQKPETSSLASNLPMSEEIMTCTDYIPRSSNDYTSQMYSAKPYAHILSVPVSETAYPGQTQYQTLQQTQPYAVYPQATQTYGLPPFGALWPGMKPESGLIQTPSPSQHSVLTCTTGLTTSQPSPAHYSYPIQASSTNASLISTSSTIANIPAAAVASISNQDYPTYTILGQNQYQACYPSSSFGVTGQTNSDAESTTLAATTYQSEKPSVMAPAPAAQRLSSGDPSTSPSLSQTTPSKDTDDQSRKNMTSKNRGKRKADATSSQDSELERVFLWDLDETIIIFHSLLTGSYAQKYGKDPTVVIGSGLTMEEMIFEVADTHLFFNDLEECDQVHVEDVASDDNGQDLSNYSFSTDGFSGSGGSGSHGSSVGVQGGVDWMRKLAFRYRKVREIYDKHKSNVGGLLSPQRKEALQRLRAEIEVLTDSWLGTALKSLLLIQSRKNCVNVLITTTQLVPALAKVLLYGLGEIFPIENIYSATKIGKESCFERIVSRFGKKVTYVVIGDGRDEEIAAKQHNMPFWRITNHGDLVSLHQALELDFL
UniProt Q8N0U4: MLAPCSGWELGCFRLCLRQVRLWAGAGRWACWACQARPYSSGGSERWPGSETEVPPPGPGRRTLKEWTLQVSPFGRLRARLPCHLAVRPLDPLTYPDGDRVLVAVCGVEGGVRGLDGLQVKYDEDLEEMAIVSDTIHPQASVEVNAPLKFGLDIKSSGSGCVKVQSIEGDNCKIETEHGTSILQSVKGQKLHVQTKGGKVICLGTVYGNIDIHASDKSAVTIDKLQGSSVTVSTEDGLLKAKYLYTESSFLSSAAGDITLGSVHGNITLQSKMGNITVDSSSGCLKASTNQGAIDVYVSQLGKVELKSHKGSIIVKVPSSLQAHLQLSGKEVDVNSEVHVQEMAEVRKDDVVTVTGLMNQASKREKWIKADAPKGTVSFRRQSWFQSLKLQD
UniProt P54760: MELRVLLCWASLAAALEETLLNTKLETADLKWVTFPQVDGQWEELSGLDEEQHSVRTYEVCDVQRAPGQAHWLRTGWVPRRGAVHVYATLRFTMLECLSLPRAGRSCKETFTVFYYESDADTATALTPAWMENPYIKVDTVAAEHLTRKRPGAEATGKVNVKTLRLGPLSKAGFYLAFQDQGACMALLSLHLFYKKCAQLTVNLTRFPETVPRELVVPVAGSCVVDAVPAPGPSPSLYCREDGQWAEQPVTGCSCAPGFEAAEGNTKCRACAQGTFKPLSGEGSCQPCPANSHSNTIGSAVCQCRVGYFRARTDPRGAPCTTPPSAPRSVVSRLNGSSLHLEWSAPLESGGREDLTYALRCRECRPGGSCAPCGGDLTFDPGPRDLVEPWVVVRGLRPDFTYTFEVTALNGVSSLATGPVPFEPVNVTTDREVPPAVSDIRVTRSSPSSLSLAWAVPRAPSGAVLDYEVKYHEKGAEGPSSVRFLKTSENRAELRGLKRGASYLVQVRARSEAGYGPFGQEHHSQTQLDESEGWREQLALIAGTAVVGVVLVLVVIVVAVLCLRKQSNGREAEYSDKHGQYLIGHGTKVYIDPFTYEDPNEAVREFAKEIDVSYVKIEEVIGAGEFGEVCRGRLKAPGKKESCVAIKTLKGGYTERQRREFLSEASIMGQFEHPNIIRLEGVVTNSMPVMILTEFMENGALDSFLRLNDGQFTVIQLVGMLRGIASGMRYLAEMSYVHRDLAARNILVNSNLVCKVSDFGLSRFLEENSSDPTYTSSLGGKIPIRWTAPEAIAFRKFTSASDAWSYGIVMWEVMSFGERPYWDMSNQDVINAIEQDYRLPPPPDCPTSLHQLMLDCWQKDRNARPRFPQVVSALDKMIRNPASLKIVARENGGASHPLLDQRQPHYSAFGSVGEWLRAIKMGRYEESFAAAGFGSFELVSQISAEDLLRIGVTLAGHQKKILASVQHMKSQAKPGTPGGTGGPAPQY
UniProt Q9BYI3: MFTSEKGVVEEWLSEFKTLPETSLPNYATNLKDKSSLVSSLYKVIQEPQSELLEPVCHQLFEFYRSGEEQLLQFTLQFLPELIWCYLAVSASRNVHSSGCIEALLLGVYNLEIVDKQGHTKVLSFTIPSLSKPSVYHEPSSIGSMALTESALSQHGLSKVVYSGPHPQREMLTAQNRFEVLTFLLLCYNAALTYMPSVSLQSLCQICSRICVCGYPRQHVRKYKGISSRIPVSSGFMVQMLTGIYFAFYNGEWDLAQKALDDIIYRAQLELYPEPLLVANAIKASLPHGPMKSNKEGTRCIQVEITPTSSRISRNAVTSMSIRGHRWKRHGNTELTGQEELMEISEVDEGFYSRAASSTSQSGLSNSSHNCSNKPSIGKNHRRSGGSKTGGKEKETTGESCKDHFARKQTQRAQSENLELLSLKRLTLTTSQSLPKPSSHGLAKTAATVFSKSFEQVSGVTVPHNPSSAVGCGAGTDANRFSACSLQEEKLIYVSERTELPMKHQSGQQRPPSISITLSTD
UniProt O43491, whole entry, looked up: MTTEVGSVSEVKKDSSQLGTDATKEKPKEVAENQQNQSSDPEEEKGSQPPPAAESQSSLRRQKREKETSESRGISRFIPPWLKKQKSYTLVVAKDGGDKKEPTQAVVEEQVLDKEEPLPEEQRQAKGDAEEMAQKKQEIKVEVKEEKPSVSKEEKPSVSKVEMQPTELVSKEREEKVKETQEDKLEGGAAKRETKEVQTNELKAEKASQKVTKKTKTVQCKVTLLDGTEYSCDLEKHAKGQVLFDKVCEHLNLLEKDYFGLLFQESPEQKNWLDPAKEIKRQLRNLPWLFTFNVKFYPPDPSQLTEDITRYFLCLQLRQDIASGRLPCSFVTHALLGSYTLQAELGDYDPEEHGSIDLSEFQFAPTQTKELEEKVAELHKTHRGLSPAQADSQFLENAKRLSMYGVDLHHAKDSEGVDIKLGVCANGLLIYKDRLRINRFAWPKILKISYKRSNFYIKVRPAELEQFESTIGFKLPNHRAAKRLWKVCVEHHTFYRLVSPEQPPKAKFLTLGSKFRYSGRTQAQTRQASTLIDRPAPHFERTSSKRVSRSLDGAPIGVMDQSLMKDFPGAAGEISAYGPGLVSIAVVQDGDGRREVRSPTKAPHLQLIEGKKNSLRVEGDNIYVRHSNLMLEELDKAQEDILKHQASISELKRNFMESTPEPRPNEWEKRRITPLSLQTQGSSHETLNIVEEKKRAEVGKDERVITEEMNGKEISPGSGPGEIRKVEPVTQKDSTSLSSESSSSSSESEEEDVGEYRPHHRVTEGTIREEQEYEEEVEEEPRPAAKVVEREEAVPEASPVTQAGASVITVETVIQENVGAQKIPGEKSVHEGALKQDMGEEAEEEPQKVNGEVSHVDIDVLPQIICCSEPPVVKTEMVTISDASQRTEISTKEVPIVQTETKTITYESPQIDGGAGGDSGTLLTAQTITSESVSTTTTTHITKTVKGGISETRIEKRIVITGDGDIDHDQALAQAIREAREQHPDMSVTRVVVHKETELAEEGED
UniProt Q9H8W3: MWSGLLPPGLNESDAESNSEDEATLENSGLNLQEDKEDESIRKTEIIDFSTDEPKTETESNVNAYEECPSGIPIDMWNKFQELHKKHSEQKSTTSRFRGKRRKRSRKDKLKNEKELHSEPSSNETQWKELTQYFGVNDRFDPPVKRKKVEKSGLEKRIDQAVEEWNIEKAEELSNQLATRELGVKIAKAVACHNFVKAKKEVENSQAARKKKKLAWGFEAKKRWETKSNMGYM

Assays:
Test in all cases: log2 fold change, soluble protein after heating vs DMSO (PISA); higher = thermal stabilisation; K562 cells, 10 uM, 30 min; active = over 0.2 and 3.5 SD of the protein, either way, in both replicates (recomputed)
[1] = compound: NC(=O)Nc1cc(-c2cccc(F)c2)sc1C(=O)N[C@H]1CCCNC1
Procedure, shortened: (§1)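 K562 cells at 2×10^6 cells/mL were treated with 10 μM compound for 30 min. Aliquots were heated for 3 min across 48°C-58°C, pooled, and extracted in PBS with 0.5% NP-40 at 4°C; soluble protein was the supernatant after 21,000xg for 90 min. Soluble protein was quantified by TMTpro 16plex LC-MS/MS with channel sums equalised, and reported as log2 fold change in thermal stability against DMSO controls, with values from duplicates.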

[2] = compound: NCC(=O)Nc1ccc(-n2nc(C(F)(F)F)cc2-c2ccc3c(ccc4ccccc43)c2)cc1
Procedure, shortened: as §1

entinostat = compound: Nc1ccccc1NC(=O)c1ccc(CNC(=O)OCc2cccnc2)cc1 [entinostat]
Procedure, shortened: as §1

[3] = compound: O=C1NC(=O)C(c2cnc3ccccn23)=C1c1cn2c3c(cc(F)cc13)CN(C(=O)N1CCCCC1)CC2
Procedure, shortened: as §1

[4] = compound: NC(=O)c1cnc(N[C@@H]2CCCC[C@@H]2N)nc1Nc1cccc(-n2nccn2)c1
Procedure, shortened: as §1

[5] = compound: NC1(c2ccc(-c3nc4ccn5c(=O)[nH]nc5c4cc3-c3ccccc3)cc2)CCC1
Procedure, shortened: as §1

citarinostat = compound: O=C(CCCCCCNC(=O)c1cnc(N(c2ccccc2)c2ccccc2Cl)nc1)NO [citarinostat]
Procedure, shortened: as §1

silmitasertib = compound: O=C(O)c1ccc2c(c1)nc(Nc1cccc(Cl)c1)c1ccncc12 [silmitasertib]
Procedure, shortened: as §1

[6] = compound: c1cc(OCCN2CCCCC2)cc(-c2n[nH]c3ccc(-c4nnc[nH]4)cc23)c1
Procedure, shortened: as §1

vorinostat = compound: O=C(CCCCCCC(=O)Nc1ccccc1)NO [vorinostat]
Procedure, shortened: as §1

Measured: log2 fold change

FAM135A (UniProt Q9P2D6)
inactive: [1] 0.069 | [2] -0.024 | entinostat -0.03 | [3] -0.088

EWSR1 (UniProt H7BY36)
inactive: [4] 0.081 | [5] 0.003 | [2] -0.005 | citarinostat -0.016 | silmitasertib 0.124 | [3] -0.154 | [6] -0.022

ERH (UniProt P84090)
inactive: [4] 0.001 | [5] 0.11 | [2] 0.002 | vorinostat -0.191 | citarinostat 0.029 | silmitasertib -0.128 | [3] 0.097 | [6] -0.183

ESF1 (UniProt Q9H501)
inactive: [1] 0.002 | entinostat 0.079 | vorinostat 0.123

ERG28 (UniProt Q9UKR5)
inactive: [1] -0.056 | [4] -0.03 | [5] 0.124 | [2] -0.092 | entinostat 0.018 | citarinostat -0.006 | silmitasertib -0.082 | [3] 0.018 | [6] -0.178

EYA3 (UniProt Q99504)
inactive: [4] -0.387 | [5] 0.217 | [2] -0.049 | vorinostat -0.068 | silmitasertib -0.137

FAM185A (UniProt Q8N0U4)
inactive: [4] -0.035 | [5] -0.117 | [2] 0.037 | silmitasertib 0.069

EPHB4 (UniProt P54760)
inactive: [1] -0.207 | [5] -0.102 | entinostat 0.122 | silmitasertib 0.18

FAM126A (UniProt Q9BYI3)
inactive: [4] -0.047 | [5] -0.035 | citarinostat 0.083 | silmitasertib -0.006 | [3] 0.183 | [6] -0.097

EPB41L2 isoform 4 (UniProt O43491)
inactive: [1] 0.096 | [5] -0.034 | entinostat 0.015 | silmitasertib -0.247 | [3] -0.047

FAM204A (UniProt Q9H8W3)
inactive: [1] 0.053 | [5] 0.199 | [2] -0.06 | entinostat -0.049 | vorinostat 0 | silmitasertib -0.093 | [3] 0.169

EPHA6 (UniProt Q9UF33)
inactive: [1] -0.523 | [4] -0.368 | [5] -0.085 | [2] -0.504 | entinostat -0.346 | citarinostat -0.354 | silmitasertib 0.272 | [3] -0.173 | [6] 0.401

ESYT2 (UniProt H7BXI1)
inactive: [1] 0.079 | [4] -0.136 | [5] -0.152 | [2] 0.056 | entinostat -0.009 | citarinostat 0.043 | silmitasertib -0.015 | [3] 0.21 | [6] -0.14

Reprinted from the entries so far (two entries):
FAM126A (UniProt Q9BYI3)
inactive: [4] -0.047 | [5] -0.035 | citarinostat 0.083 | silmitasertib -0.006 | [3] 0.183 | [6] -0.097

EPB41L2 isoform 4 (UniProt O43491)
inactive: [1] 0.096 | [5] -0.034 | entinostat 0.015 | silmitasertib -0.247 | [3] -0.047

(listing goes on)

EPS15L1 (UniProt M0QY01)
inactive: [1] 0.005 | [2] 0.122 | entinostat -0.001 | [3] -0.007
